Assay results: the supplement of paper PMC12823440, “Inhibitors supercharge kinase turnover through native proteolytic circuits” (Nature, 2025)
Structures can show the parent of a compound that is named as a salt. This is one part of the list. Hit calls seldom repeat between salt and free forms of one compound.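 Kinases, fused to nanoluciferase, were expressed in K562 cells; luminescence was measured every 4 h from 2 to 18 h as percent of control (DMSO = 100%, positive control = 0%). A time point is decreased if signal falls significantly (2 sigma). Hits were called by the authors by a rule that is not shown; the count of time points alone does not decide it.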

Amino acid sequences for entries named in this document (tags omitted). A change or cut given only in a name is not applied to a line headed by its entry.
UniProt Q96KB5: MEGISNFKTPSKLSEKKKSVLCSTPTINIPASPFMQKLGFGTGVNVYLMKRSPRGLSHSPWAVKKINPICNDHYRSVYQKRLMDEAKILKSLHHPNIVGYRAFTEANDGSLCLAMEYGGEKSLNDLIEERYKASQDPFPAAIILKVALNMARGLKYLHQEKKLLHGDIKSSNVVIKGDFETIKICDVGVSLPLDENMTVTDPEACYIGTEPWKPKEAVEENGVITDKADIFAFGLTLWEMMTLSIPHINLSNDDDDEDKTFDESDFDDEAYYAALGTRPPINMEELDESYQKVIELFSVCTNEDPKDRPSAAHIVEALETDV

The compounds below were run against PBK (UniProt Q96KB5) (assay: kinase-Nluc reporter destabilization hit call (1 = scored as downregulated) (binary); higher = compound decreases kinase abundance). Conditions: 2.5 µM; K562; 2-18 h.

kinase-Nluc reporter destabilization hit call, inactive:
CN1CCCN(C(=O)c2cccc(-c3ccc(/C=C4/C(=O)Nc5ccc(Cl)cc54)o3)c2)CC1 [CX-6258 (hydrochloride)] 0, Clc1ccc(C2(c3ccc(-c4cn[nH]c4)cc3)CCNCC2)cc1 [AT7867 (dihydrochloride)] 0, CC(C)Oc1ccc(-c2nn([C@@H](C)c3oc4ccc(F)cc4c(=O)c3-c3cccc(F)c3)c3ncnc(N)c23)cc1F [Umbralisib] 0, C=CC(=O)Nc1cc(Nc2nccc(-c3cn(C)c4ccccc34)n2)c(OC)cc1N(C)CCN(C)C [Osimertinib] 0, COc1cc2c(Oc3ccc4[nH]c(C)cc4c3F)ncnc2cc1OCCCN1CCCC1 [Cediranib (maleate)] 0, CC(C)Oc1ccc(-c2nn([C@@H](C)c3oc4ccc(F)cc4c(=O)c3-c3cccc(F)c3)c3ncnc(N)c23)cc1F [Umbralisib (hydrochloride)] 0, COc1ccc(S(=O)(=O)N(CCO)c2ccccc2CN(C)C/C=C/c2ccc(Cl)cc2)cc1 [KN-93 (hydrochloride)] 0, C=CC(=O)N1CCN(c2ncnc3c(F)c(-c4c(O)cccc4F)c(Cl)cc23)CC1 0, COc1ccc(S(=O)(=O)Nc2ccccc2CN(C)C/C=C/c2ccc(Cl)cc2)cc1 [KN-92 (hydrochloride)] 0, CCN(CC)Cc1ccc(OC)c(-c2cc3c(-c4ccc(C(=O)O)c(C(C)C)c4)ccnc3[nH]2)c1 0, CN(C)C/C=C/C(=O)Nc1cc2c(Nc3ccc(F)c(Cl)c3)ncnc2cc1O[C@H]1CCOC1 [Afatinib (dimaleate)] 0, Oc1cccc(-c2nc(N3CCOCC3)c3oc4ncccc4c3n2)c1 [PI-103 (Hydrochloride)] 0, c1cc(-c2cnn3cc(-c4ccc(OCCN5CCCCC5)cc4)cnc23)ccn1 [Dorsomorphin] 0, COc1ccc(S(=O)(=O)N(CCO)c2ccccc2CN(C)C/C=C/c2ccc(Cl)cc2)cc1 [KN-93 (phosphate)] 0, Nc1ncnc2c1c(-c1ccc(Oc3ccccc3)cc1)nn2[C@@H]1CCCNC1 [IBT6A (hydrochloride)] 0

Same assay, conditions: 10 µM; K562; 2-18 h

kinase-Nluc reporter destabilization hit call, inactive:
COc1cc2nccc(Oc3ccc(NC(=O)C4(C(=O)Nc5ccc(F)cc5)CC4)cc3)c2cc1OC [Cabozantinib (S-malate)] 0, Cn1cc(-c2cnc3ccc4ccc(CS(=O)(=O)NCc5ccccn5)cc4c(=O)c3c2)cn1 [MK-8033 (hydrochloride)] 0, CNC(=O)c1ccc(Nc2ncc(C(F)(F)F)c(NCc3nccnc3N(C)S(C)(=O)=O)n2)cc1 [Defactinib] 0, N#CCNC(=O)c1ccc(-c2ccnc(Nc3ccc(N4CCOCC4)cc3)n2)cc1 [Momelotinib] 0, CC(=O)c1c(C)c2cnc(Nc3ccc(N4CCNCC4)cn3)nc2n(C2CCCC2)c1=O [Palbociclib (isethionate)] 0, Nc1cncc(-c2cn3ccnc3c(Nc3ccc(N4CCN(C5COC5)CC4)cc3)n2)n1 [Lanraplenib (succinate)] 0, C#Cc1cccc(Nc2ncnc3cc4c(cc23)OCCOCCOCCO4)c1 [Icotinib] 0, O=C(O)c1ccc2c(c1)nc(Nc1cccc(Cl)c1)c1ccncc12 [Silmitasertib (sodium salt)] 0, CC(C)Nc1cc(-c2c[nH]c(C(=O)N[C@H](CO)c3cccc(Cl)c3)c2)c(Cl)cn1 [Ulixertinib (hydrochloride)] 0, C=CC(=O)N1CCN(c2ncnc3c(F)c(-c4c(O)cccc4F)c(Cl)cc23)CC1 0, CN(C)C(=O)c1cc2cnc(Nc3ccc(N4CCNCC4)cn3)nc2n1C1CCCC1 [Ribociclib] 0, COc1cc2c(-c3cnn4cc(N5CCC(N6CCN(C)CC6)CC5)cnc34)ccnc2cc1F [ALK2-IN-4 (succinate)] 0, CCN(CC)Cc1ccc(OC)c(-c2cc3c(-c4ccc(C(=O)O)c(C(C)C)c4)ccnc3[nH]2)c1 0, O=C(c1nn(-c2ccc(CN3CCOCC3)cc2)c2c1CS(=O)(=O)c1c(F)cccc1-2)N1CCOCC1 0, CC(C)(C)n1nc(-c2cccc3ccccc23)c2c(N)ncnc21 [1-Naphthyl PP1 (hydrochloride)] 0, CCN(CC)CC(=O)Nc1c(C)cccc1C [Lidocaine (hydrochloride)] 0, Cn1ncc(Cl)c1-c1cc(C(=O)N[C@H](CN)Cc2cccc(F)c2)sc1Cl [Afuresertib (hydrochloride)] 0, COc1cc2c(cc1OC)-c1c(C)c3ccc(OC)c(OC)c3c[n+]1CC2 [Dehydrocorydaline] 0, C[C@H](CCC(=O)NCCS(=O)(=O)O)[C@H]1CC[C@H]2[C@@H]3[C@@H](O)C[C@@H]4C[C@H](O)CC[C@]4(C)[C@H]3CC[C@]12C [Tauroursodeoxycholate (dihydrate)] 0, OCCn1cc(-c2cnc3nnn(Cc4ccc5ncccc5c4)c3n2)cn1 0, C[S+]([O-])c1ccc(-c2nc(-c3ccc(F)cc3)c(-c3ccncc3)[nH]2)cc1 (configuration not stated) 0, CC(C)(C)n1nc(-c2cccc3ccccc23)c2c(N)ncnc21 [1-Naphthyl PP1] 0
